Data on two substances can be found in paper PMC4700579.

Amino acid sequences for entries named in this document (tags omitted).
UniProt P55884: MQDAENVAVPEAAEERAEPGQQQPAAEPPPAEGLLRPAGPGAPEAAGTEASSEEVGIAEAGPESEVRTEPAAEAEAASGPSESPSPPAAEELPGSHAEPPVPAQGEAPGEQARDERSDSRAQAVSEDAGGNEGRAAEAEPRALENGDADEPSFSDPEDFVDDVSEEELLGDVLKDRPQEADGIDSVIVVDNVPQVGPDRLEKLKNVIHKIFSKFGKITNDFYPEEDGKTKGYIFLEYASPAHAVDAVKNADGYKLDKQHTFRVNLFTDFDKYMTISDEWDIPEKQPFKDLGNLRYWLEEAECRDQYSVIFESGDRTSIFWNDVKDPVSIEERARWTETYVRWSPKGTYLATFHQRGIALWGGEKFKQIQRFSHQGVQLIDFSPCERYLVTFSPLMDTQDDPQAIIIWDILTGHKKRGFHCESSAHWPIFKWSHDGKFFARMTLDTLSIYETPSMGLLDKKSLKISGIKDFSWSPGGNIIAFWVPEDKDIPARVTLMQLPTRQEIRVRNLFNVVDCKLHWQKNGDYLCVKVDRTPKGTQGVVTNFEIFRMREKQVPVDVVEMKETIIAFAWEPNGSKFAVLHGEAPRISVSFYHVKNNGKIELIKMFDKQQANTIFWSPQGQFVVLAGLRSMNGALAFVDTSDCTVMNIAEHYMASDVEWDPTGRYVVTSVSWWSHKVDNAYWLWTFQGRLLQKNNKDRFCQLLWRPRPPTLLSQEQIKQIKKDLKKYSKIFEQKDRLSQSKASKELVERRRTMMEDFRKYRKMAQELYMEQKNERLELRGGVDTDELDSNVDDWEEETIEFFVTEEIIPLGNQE
UniProt Q04637: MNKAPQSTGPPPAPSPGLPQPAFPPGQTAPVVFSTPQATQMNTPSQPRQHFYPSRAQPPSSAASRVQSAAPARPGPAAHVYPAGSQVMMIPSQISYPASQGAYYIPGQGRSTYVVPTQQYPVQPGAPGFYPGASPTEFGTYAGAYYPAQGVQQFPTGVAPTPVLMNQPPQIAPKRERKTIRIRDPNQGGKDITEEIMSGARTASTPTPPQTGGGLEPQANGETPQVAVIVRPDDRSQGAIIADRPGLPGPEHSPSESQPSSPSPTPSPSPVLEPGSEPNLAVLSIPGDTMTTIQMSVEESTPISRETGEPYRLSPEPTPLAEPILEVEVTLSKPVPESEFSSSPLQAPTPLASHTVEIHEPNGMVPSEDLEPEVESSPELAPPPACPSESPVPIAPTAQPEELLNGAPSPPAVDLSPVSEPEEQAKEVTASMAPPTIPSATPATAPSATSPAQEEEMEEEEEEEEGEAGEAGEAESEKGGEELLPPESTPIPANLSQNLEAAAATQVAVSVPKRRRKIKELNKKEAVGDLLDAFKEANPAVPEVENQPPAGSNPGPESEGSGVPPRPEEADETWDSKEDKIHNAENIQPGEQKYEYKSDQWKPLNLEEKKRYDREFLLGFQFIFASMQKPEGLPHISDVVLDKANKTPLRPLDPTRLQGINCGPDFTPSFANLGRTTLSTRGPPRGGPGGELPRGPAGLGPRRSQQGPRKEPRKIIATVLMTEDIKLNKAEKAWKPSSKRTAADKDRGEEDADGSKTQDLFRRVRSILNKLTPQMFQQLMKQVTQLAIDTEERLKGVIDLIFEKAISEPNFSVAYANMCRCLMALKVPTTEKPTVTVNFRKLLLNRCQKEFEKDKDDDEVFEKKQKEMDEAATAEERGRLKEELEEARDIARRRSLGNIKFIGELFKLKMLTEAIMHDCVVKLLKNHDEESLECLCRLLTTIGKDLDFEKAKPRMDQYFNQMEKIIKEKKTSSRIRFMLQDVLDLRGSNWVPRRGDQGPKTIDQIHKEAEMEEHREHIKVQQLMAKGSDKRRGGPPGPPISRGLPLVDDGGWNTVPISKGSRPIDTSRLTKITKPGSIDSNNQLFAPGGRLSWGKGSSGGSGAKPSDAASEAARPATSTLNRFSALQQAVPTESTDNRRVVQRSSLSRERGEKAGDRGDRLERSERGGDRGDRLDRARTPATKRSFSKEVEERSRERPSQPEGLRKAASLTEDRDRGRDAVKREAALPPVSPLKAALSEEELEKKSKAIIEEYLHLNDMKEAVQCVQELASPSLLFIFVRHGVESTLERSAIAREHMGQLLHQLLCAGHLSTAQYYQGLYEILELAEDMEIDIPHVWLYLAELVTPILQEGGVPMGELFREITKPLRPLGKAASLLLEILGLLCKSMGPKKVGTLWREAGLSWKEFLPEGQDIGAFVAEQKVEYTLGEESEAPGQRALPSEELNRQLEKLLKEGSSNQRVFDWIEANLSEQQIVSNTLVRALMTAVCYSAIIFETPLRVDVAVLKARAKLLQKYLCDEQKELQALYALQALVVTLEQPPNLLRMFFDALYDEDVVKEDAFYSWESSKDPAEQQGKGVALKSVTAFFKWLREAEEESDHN
UniProt P06730: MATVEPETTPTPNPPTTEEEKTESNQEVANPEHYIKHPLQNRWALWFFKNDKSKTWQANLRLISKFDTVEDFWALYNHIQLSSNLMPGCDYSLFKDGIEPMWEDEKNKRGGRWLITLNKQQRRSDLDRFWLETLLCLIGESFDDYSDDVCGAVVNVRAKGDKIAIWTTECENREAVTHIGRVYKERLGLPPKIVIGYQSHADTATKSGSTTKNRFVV

This experiment has as its target eIF3B (human (endogenous in fibroblasts)) (UniProt P55884). Briefly: co-IP; primary antibody (anti-eIF4E or anti-eIF3B) added to lysates of RBS and corrected fibroblasts (D-Leu or L-Leu treated), overnight at 4 °C, protein G-dynabeads 3 h, washed three times with lysis buffer, Western blot. (In general: A western blot detects proteins with antibodies after separation by electrophoresis.)

No constants are given. Whether binding was seen depends on the method and setting. In cells and extracts the contact can be indirect. Some entries that bind do so weakly or less than the wild type.

Consider eIF4G1 (from UniProt Q04637 1-1599), for which the binding result was “binds”.

For “eukaryotic translation initiation factor 4E (from UniProt P06730 1-217)”, the binding entry is on record as “binds”.
